Some entries share one result that the patent states for a list of compounds.
System: monkey kidney epithelial cells of the BSC-1 line
Assay: Growth-promoting (mitogenic) activity: number of cells in BSC-1 cultures counted four days after addition
Assay type: cell-based, African green monkey
Details: agent alone at maximal mitogenic concentration (14-Ser 0.5 μg/ml; EGF, IGF-I 50 ng/ml; acidic FGF 100 pg/ml; basic FGF 1,000 pg/ml; vasopressin 75 pg/ml; K 10.4 mM; Na 180 mM)
Protocol: For the assay, cells were detached from the dish with a solution of trypsin and an aliquot was counted in a hemocytometer.
Nontransformed monkey kidney epithelial cells of the BSC-1 line were grown to confluence in Dulbecco's modified Eagle's medium containing 1% calf serum and […] in 55-mm culture dishes at 38° C. in a CO2 incubator. When cells achieved a density of about 10^6 per dish, the spent medium was removed and replaced with fresh medium containing 0.5% calf serum and the 14-amino acid peptide (0.5 μg/ml). Additions of each of the mitogenic signals at maximal concentration were made to the culture medium. Four days later the number of cells in each culture was counted in a hemocytometer. Values obtained were the mean of 3 separate cultures.
Nontransformed monkey kidney epithelial cells of the BSC-1 line were grown to confluence in Dulbecco's modified Eagle's medium containing 1% calf serum and 1.6 μM biotin at 38° C. in a CO2 incubator. When cells achieved a density of about 10^6 per dish, the spent medium was removed and replaced with fresh medium containing 0.5% calf serum and different amounts of the two peptides. Four days later the number of cells in each culture was counted. Each value is the mean of 3 separate cultures. […]

Q: For AQPYPQGNHEA, which “stimulation of growth (increase in cell number compared to control at four days)” value is on record?
A: 25-30%
